Reference: PubChem BioAssay (NCATS)
This list was built around the results that the source calls inconclusive (neither active nor inactive); the mix of calls is not that of the screen. Potencies of inconclusive entries are doubtful fits and often do not repeat. Active and inactive are the calls of the source. Calls come from the whole dose curve; as a rule, active = well fitted inhibition curve with a large enough effect; inconclusive = small, poorly fitted or top-dose-only effect; inactive = no such curve, though single readings can be large or run the other way.

Sequences of proteins named here, by UniProt entry; tags and fusion partners are left off. A change or cut given only in a name is not applied to a line headed by its entry.
UniProt Q99816: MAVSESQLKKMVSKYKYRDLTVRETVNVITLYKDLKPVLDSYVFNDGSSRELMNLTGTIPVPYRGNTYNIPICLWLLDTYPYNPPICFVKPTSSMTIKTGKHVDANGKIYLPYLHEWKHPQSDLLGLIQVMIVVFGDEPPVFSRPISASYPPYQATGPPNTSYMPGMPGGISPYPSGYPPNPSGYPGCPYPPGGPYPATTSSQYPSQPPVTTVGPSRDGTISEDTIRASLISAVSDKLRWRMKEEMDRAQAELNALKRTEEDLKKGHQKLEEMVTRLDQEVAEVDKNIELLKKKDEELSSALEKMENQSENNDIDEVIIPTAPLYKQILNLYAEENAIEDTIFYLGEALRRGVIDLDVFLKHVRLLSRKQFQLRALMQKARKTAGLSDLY

Target: Tumor susceptibility gene 101 protein (Homo sapiens) (UniProt Q99816)
Experiment: qHTS Assay for Iinhibitors of HIV-1 Budding by Blocking the Interaction of PTAP/TSG101: Hit Validation (AID 651600); note: nearly all actives have a fitted effect of over 70% in size
Settings: PTAP peptide/TSG101 UEV interaction, biochemical assay; series mostly up to 57.5 µM; activity change, negative = inhibition: at the top concentration
Procedure, shortened: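 FITC-PTAP peptide (50 nM final) binding to Tsg101 binding domain (10 uM final) was measured by polarization after 20 min at r.t. with compounds, in 10 mM HEPES pH 7.5 buffer with 0.15 M NaCl and 0.01% Tween 20.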
% is set by controls: 0 for no effect and ±100 for the full control effect; potency is the fitted concentration of half-maximal effect.

Row | SMILES | Potency | activity change, negative = inhibition
1 | CN1CCC2(CC1)C1CN(C)CC=C1C(C#N)=C(N)C2(C#N)C#N (stereo not given) | inconclusive: 46.1 µM [inhibitor, single point] | 
2 | CCN(CC)C(=O)[C@H]1CC(CC(=O)NCc2cccc(C(F)(F)F)c2)C(=O)N2CCc3c([nH]c4ccc(OC)cc34)[C@]12C (stereo not given in full) |  | inactive: -1.5%
3 | CCc1c(C)sc(NC(=O)c2ccccc2[N+](=O)[O-])c1C(N)=O |  | inactive: 7.8%
4 | S=C(NCc1ccccc1)Nc1cccc(Cl)c1 |  | inactive: -1.4%
5 | CCC/C(C#Cc1ccc(N(C)C)cc1)=C1/c2ccccc2C(=O)N1c1ccccc1 | inconclusive: 36.6 µM [inhibitor, single point] | 
6 | Nc1c(C(=O)Nc2ccccc2F)sc2nc(Cc3ccccc3)cc(C(F)(F)F)c12 | inconclusive: 23.1 µM [inhibitor, single point] | 
7 | CC(C)(C)N=Cc1c(O)ccc2oc3c(c12)CCCC3 | inconclusive: 29.1 µM [inhibitor, single point] | 
8 | N=c1c(S(=O)(=O)c2ccc(Br)cc2)cc2c(=O)n3ccccc3nc2n1Cc1ccccc1 |  | inactive: -22.6%
9 | C/C(=N/NC(=O)c1ccncc1)c1cc2ccc(O)cc2oc1=O | active: 14.6 µM | 
10 | CCCn1nc(-c2ccccc2)c2nc3ccccc3nc21 | inconclusive: 32.6 µM [inhibitor, single point] | 
11 | Cc1c(NC(=O)/C(C#N)=C/c2ccc(-c3cccc(Cl)c3)o2)c(=O)n(-c2ccccc2)n1C | inconclusive: 29.1 µM [inhibitor, partial curve] | 
12 | Cc1cc([N+](=O)[O-])ccc1-c1ccc(/C=N/NC(=O)Cc2ccccc2)o1 | inconclusive: 36.6 µM [inhibitor, single point] | 
13 | COc1ccc(CNS(=O)(=O)c2cc3c(cc2Cl)N(C(C)=O)CCO3)cc1 |  | inactive: -1.31%
14 | COc1ccc(Cn2c3ccc(OC)cc3c3nc4ccccc4nc32)cc1 | inconclusive: 5.17 µM [inhibitor, full curve, poor fit] | 
15 | CCN(c1ccc(N=Cc2c(O)n(Cc3ccc(OC)cc3)c(=O)c3ccccc23)cc1)C(C)C | active: 25.9 µM | 
16 | C(=N\NC1=Nc2cccc3cccc1c23)/c1ccccc1 |  | inactive: -7.26%
17 | O=C1Nc2ccc(Cl)cc2C12Nc1ccccc1-c1nnc(SCc3ccccc3F)nc1O2 (stereo not given) |  | inactive: -15.6%
18 | COc1ccc(-n2nc(C(=O)Nc3ccc(OC)c(OC)c3)c3c4ccccc4n(C)c3c2=O)cc1 |  | inactive: 7.24%
19 | CC1=CC(=C(C#N)c2nc3ccccc3s2)C=C(C)N1c1ccc(F)cc1 | active: 18.3 µM | 
20 | CCC(=O)Oc1ccc2c(c1)O/C(=C\c1ccco1)C2=O | active: 16.3 µM | 

Two of the compounds above, as tab-separated lines:
Row	SMILES	Potency	activity change, negative = inhibition
15	CCN(c1ccc(N=Cc2c(O)n(Cc3ccc(OC)cc3)c(=O)c3ccccc23)cc1)C(C)C	active: 25.9 µM	
20	CCC(=O)Oc1ccc2c(c1)O/C(=C\c1ccco1)C2=O	active: 16.3 µM	

Later entries

Row | SMILES | Potency | activity change, negative = inhibition
21 | CCOC(=O)/C(C#N)=C(C)/C=C1\Sc2ccccc2N1CC | inconclusive: 32.6 µM [inhibitor, single point] | 
22 | Cc1cccc(-n2c(O)c(C=Nc3ccc4c(c3)OCO4)c3ccccc3c2=O)n1 | inconclusive: 41.1 µM [inhibitor, single point] | 
23 | C=CCNC(=O)C(C#N)c1nc2ccccc2nc1N1CCN(Cc2ccccc2)CC1 (stereo not given) | inconclusive: 46.1 µM [inhibitor, single point] | 
24 | COCC1CCN(Cc2c(C(=O)N3CCc4ccccc4C3)nc3ccc(Cl)cn23)C1 (stereo not given) | inconclusive: 32.6 µM [inhibitor, single point] | 
25 | COc1cc2c(cc1OC)-c1cc3ccc4c(c3c[n+]1CC2)OCO4 | active: 13 µM | 
26 | O=c1c(-c2cc3ccccc3o2)[n+]([O-])c2ccccc2n1OCc1ccccn1 | inconclusive: 25.9 µM [inhibitor, single point] | 
27 | Brc1ccc(C2=CC(c3cccs3)n3ncnc3N2)cc1 (stereo not given) | inconclusive: 16.3 µM [inhibitor, partial curve] | 
28 | OC(CN1CCN(c2ccccn2)CC1)Cn1c2ccccc2c2ccccc21 (stereo not given) |  | inactive: -4.52%
29 | Cc1ccc(N=Cc2c(O)ccc3ccccc23)cc1F | inconclusive: 41.1 µM [inhibitor, single point] | 
30 | CCc1ccc(/C=C2/C(=O)N(C)C(=S)N2CC(=O)OC)s1 | inconclusive: 11.6 µM [inhibitor, partial curve, poor fit] | 
31 | O=C1Nc2ccc(F)cc2C12Nc1ccccc1-c1nnc(SCc3ccccc3)nc1O2 (stereo not given) | inconclusive: 32.6 µM [inhibitor, partial curve, poor fit] | 
32 | CN(C)CCNc1ccc2ncn3c4ccc(O)cc4c(=O)c1c23 | active: 8.19 µM | 
33 | Nc1ccc2c(c1)C/C(=C/c1ccco1)C2=O |  | inactive: -11%
34 | O=c1ccc2cc3c4c(c2o1)CCCN4CCC3 | inconclusive: 5.8 µM [inhibitor, partial curve] | 
35 | CCCCCCN1C=CC=C/C1=C/C=C(C#N)C#N | inconclusive: 41.1 µM [inhibitor, single point] | 
36 | Cc1cc(/C=C2\SC(=S)NC2=O)c(C)n1-c1ccccc1 | inconclusive: 36.6 µM [inhibitor, single point] | 
37 | Cn1c(=O)c2[nH]c(COc3ccccc3)nc2n(C)c1=O |  | inactive: -4.67%
38 | CCCNc1c(F)c(F)c2c(C)c3ccccc3nc2c1F | inconclusive: 9.19 µM [inhibitor, partial curve] | 
39 | O=C(NCc1ccco1)c1cccc2c1C(=O)c1ccc(N3CCC(Cc4ccccc4)CC3)cc1S2(=O)=O |  | inactive: -18.3%
40 | COc1ccc(C2C(C(=O)c3cccs3)=C(O)C(=O)N2c2nncs2)cc1 (stereo not given) | active: 20.6 µM | 
